Results: the supplement of paper PMC12067093, “Discovery and optimisation of a covalent ligand for TRIM25 and its application to targeted protein ubiquitination” (Chemical Science, 2025)
Some of the results follow.

Chains of the proteins cited; added tags and fusions are not shown. Lines headed by an entry give the natural chain unless they say otherwise; changes in a name come on top.
UniProt O94855: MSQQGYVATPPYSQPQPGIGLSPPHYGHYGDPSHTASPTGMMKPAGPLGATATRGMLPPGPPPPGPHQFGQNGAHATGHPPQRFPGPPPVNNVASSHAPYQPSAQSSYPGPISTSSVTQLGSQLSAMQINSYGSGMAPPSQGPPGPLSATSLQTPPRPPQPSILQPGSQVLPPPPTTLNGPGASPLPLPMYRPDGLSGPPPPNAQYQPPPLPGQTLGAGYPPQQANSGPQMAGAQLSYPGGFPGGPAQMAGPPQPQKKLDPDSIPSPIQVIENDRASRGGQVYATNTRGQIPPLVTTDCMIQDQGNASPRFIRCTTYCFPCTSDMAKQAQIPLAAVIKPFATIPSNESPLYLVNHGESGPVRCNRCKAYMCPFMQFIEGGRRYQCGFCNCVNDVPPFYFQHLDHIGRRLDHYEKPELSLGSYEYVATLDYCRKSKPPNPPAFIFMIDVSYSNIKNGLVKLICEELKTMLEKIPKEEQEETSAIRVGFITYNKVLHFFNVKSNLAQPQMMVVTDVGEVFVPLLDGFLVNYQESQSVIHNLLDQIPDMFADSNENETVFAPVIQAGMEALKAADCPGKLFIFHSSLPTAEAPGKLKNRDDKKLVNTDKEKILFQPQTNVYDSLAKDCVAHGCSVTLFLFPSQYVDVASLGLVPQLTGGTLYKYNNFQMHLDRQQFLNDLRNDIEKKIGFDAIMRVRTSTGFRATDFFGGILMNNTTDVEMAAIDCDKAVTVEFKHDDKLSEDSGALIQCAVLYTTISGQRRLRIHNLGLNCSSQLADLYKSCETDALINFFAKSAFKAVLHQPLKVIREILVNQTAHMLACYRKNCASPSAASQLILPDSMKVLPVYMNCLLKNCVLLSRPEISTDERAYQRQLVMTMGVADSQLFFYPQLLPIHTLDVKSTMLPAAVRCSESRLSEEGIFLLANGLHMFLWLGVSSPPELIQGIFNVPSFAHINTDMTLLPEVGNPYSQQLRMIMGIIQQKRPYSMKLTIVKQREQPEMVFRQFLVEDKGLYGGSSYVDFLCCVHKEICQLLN
UniProt P53992: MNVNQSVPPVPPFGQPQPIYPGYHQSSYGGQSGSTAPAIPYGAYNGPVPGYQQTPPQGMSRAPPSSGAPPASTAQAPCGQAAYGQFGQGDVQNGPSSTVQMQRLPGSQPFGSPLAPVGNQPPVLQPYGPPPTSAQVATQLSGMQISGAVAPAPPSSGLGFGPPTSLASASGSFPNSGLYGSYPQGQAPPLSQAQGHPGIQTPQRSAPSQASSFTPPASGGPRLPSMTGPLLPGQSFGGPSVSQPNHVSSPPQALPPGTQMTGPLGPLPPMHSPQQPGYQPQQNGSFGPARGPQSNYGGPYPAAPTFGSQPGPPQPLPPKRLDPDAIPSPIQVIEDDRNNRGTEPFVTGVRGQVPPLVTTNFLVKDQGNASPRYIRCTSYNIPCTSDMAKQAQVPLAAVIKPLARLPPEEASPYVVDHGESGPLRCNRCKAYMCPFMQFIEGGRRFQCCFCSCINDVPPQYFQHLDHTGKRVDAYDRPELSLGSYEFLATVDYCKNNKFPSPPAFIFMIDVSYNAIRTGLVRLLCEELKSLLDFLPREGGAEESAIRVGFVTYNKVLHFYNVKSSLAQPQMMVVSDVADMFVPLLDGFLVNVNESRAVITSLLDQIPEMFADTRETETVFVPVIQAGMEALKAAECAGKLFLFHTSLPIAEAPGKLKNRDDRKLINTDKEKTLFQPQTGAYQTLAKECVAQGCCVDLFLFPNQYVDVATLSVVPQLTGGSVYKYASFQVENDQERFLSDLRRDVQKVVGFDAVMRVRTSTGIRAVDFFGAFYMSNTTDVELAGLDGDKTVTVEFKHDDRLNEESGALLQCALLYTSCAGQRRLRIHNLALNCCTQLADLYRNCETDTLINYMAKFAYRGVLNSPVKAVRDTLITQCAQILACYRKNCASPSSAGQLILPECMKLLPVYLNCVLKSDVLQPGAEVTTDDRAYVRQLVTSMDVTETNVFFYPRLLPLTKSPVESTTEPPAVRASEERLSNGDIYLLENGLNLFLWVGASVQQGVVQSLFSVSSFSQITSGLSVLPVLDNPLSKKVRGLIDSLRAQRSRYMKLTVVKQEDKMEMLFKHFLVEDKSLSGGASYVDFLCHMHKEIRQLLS
UniProt O95248: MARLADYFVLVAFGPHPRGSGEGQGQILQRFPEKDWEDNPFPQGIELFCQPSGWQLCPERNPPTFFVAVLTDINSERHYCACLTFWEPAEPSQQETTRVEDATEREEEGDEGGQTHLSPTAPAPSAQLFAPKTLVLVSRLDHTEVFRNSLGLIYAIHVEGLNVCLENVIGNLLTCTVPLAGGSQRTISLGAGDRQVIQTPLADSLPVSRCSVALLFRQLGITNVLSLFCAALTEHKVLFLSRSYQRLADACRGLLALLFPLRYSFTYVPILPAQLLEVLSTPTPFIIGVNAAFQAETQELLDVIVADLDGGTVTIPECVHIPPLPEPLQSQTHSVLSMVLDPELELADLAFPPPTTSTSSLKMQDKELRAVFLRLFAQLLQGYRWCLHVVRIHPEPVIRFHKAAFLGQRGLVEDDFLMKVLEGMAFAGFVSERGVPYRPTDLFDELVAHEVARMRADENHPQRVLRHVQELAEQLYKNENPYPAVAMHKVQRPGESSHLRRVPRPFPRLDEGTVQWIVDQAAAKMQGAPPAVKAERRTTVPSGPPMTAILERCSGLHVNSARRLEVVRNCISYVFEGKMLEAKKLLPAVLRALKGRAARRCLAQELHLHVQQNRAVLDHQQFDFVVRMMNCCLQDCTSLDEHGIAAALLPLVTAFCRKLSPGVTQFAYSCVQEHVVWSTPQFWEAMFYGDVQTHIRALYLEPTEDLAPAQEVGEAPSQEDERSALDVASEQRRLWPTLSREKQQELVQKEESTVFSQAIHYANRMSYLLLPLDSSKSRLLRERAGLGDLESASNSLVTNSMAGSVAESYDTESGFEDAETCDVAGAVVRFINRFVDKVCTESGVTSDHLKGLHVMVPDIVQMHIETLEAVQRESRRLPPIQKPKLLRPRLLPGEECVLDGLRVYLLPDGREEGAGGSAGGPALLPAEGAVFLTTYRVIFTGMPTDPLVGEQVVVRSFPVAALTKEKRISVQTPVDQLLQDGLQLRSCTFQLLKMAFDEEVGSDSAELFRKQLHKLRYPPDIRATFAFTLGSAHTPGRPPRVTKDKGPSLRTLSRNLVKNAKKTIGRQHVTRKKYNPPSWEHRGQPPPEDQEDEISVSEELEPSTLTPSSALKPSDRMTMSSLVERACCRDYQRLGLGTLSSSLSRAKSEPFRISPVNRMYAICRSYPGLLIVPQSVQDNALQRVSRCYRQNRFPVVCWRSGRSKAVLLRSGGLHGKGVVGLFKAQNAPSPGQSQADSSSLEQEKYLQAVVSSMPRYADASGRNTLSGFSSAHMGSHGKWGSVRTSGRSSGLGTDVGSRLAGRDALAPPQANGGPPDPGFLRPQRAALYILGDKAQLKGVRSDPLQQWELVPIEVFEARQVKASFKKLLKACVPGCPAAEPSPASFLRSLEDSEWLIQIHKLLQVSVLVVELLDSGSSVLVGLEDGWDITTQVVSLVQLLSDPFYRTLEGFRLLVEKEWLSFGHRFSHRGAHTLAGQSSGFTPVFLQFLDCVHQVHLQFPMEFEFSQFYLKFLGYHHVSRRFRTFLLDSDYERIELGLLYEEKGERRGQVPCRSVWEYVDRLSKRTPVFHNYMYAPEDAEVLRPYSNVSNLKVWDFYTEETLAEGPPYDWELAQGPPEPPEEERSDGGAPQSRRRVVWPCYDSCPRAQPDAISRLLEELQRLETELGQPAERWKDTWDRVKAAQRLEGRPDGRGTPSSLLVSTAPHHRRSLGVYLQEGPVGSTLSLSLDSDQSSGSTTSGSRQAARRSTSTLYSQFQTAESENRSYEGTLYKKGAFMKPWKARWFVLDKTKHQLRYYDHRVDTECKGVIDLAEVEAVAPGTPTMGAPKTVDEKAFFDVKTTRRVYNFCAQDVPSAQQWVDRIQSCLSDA
UniProt Q9UPW6: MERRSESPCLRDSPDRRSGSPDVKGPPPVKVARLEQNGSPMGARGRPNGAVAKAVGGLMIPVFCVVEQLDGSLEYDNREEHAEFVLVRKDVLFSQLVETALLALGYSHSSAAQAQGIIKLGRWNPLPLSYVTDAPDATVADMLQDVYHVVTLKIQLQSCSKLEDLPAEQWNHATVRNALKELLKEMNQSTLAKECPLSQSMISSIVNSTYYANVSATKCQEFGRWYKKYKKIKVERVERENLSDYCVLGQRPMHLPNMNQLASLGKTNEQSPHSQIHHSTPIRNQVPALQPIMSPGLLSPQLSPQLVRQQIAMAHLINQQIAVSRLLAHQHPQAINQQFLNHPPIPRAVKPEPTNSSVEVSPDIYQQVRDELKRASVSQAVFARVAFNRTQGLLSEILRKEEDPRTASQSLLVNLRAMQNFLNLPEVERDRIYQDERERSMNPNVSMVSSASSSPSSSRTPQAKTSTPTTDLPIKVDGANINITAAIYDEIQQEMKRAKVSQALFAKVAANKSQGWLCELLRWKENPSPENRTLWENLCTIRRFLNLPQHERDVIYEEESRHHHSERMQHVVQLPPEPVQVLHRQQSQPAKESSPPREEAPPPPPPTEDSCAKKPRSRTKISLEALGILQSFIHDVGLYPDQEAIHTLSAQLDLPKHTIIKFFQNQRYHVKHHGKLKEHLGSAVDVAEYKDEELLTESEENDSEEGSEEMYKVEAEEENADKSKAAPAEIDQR
UniProt Q15437: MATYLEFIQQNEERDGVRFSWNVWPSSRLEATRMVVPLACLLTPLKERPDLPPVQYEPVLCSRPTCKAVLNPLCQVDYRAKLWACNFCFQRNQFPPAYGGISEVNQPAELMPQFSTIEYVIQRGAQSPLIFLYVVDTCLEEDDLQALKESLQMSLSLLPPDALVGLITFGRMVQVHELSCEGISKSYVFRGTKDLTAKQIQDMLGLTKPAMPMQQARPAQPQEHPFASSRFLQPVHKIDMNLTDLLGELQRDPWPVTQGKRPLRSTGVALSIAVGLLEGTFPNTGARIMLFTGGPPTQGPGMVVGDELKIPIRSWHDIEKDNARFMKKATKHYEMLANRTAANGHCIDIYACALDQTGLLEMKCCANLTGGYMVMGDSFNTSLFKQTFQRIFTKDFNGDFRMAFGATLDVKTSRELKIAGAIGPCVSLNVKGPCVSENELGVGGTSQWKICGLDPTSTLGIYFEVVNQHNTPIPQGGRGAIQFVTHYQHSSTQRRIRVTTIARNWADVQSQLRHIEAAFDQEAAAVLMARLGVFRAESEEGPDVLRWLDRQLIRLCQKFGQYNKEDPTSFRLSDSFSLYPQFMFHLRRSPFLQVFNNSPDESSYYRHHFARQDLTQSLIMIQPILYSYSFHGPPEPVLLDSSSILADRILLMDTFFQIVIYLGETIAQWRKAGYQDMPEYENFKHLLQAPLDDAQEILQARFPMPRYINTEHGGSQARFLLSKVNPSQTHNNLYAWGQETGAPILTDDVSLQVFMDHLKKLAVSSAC
UniProt Q9UGP8: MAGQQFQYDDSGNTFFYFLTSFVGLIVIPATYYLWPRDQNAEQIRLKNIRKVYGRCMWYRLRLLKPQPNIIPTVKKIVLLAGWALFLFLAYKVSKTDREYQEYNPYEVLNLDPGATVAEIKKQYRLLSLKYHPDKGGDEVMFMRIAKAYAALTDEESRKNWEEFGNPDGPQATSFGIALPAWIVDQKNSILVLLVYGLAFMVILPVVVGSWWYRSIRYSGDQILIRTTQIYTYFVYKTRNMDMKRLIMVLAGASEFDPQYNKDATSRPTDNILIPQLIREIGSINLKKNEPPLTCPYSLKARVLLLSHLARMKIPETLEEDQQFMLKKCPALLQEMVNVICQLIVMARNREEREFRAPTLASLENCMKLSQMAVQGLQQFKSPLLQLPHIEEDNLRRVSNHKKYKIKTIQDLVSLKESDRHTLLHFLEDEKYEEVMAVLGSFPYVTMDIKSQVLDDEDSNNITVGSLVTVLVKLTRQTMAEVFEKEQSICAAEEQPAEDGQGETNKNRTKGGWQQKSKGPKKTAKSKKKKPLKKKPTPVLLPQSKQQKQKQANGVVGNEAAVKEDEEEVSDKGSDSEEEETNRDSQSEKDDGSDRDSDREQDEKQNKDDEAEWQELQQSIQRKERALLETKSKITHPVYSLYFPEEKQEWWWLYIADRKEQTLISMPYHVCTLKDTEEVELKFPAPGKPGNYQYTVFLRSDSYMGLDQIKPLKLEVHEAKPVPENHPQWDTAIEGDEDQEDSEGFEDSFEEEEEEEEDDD

Compound: CC1Cc2ccccc2N1C(=O)C1CCCN(C1)C(=O)CCl (mixture of isomers) [TRIM25 ligand 11 (diastereomer mixture)]
Test: probe-labelled cysteine peptide fold change vs DMSO (competition) (log2 fold change); higher = less target engagement (more negative = stronger competition)
Details: THP-1, incubation time: 4 h
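Note: competitive chemoproteomic profiling in live THP-1 cells with an iodoacetamide desthiobiotin (IA-DTB) probe, comparing probe-labelled peptide intensities in compound-treated cells against DMSO-treated controls.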

Target	probe-labelled cysteine peptide fold change (10 µM)	probe-labelled cysteine peptide fold change (50 µM)
SEH1L_Q96EE3_161_IYEAPDVMNLSQWSLQHEISCK (UniProt Q96EE3)	0.163	0.213
SEC24D_O94855_388+390_YQCGFCNCVNDVPPFYFQHLDHIGR (UniProt O94855)	-0.156	-0.0449
SDAD1_Q9NVU7_87_DLLSCNHTVLDPDLR (UniProt Q9NVU7)	0.239	0.348
SEC24C_P53992_816_LNEESGALLQCALLYTSCAGQR (UniProt P53992)	0.24	0.205
SBF1_O95248_839_VCTESGVTSDHLK (UniProt O95248)	0.116	0.0908
SATB2_Q9UPW6_159_IQLQSCSK (UniProt Q9UPW6)	0.071	-0.00125
SEC23IP_Q9Y6Y8_678_EKIDMESLLMCTVDDLK (UniProt Q9Y6Y8)	0.113	0.00273
SCP2_P22307_495_ADCTITMADSDFLALMTGK (UniProt P22307)	0.0353	-0.0602
SEC23B_Q15437_66_ERPDLPPVQYEPVLCSRPTCK (UniProt Q15437)	0.0013	-0.00603
SCFD2_Q8WU76_507_ALAQVFCEESGLSPLLQK (UniProt Q8WU76)	0.0961	0.0426
SEC24D_O94855_1022_GLYGGSSYVDFLCCVHK (UniProt O94855)	0.0643	0.0939
SEC63_Q9UGP8_295_NEPPLTCPYSLK (UniProt Q9UGP8)	-0.101	-0.151
SEC23B_Q15437_40_MVVPLACLLTPLK (UniProt Q15437)	-0.0615	-0.0659
SEC24B_O95487_887_YSAGCIYYYPSFHYTHNPSQAEK (UniProt O95487)	0.267	-0.0661

Exported in markdown: entries from further up.

| Target | probe-labelled cysteine peptide fold change (10 µM) | probe-labelled cysteine peptide fold change (50 µM) |
| --- | --- | --- |
| SBF1_O95248_839_VCTESGVTSDHLK (UniProt O95248) | 0.116 | 0.0908 |
| SATB2_Q9UPW6_159_IQLQSCSK (UniProt Q9UPW6) | 0.071 | -0.00125 |
